Some of these results come from one statement about several compounds together.
What was measured:
THP-1 cells = assay: Host THP-1 cell cytotoxicity in the CDIPD high content screen; type: cell-based, human; conditions: primary high content screen
Description: (§1) Assay Conditions B: THP-1 cells (human acute monocytic leukemia cell line—ATCC TIB202) were grown in RPMI supplemented with 10% Fetal Bovine Serum (FBS) and 50 μM 2-mercaptoethanol at 37° C. in 5% CO2. THP-1 were seeded in microwell plates at 5×10^5 cells/mL density and treated with 0.1 μM phorbol myristate acetate (PMA, Sigma) at 37° C. for 48 h for differentiation into adherent, non-dividing macrophages. After activation by PMA, cells were washed and incubated with complete RPMI medium containing stationary phase Leishmania promastigotes (L. major: strain LV39; L. donovani, strain 1S/Cl2D) at a 1:15 parasite-cell ratio. Compounds were added and incubated at 37° C. for 72 h. Cells were then washed with phosphate-buffered saline (PBS), fixed for 30 minutes with 4% formaldehyde, rinsed again with PBS, stained for 2 h with 4′,6′-diamidino-2-phenylindole (DAPI 300 nM) and finally washed with PBS. In a collaborative effort to identify new antileishmanial chemotypes with minimal host cell cytotoxicity, compounds from the Boston University Center for Molecular Discovery (BUCMD) screening collection were assessed in a phenotypic, high content primary screen at the University of California's Center for Discovery and Innovation in Parasitic Diseases (CDIPD) for the ability to inhibit growth of L. donovani intracellular amastigotes infecting THP-1 cells. […]

[1] = system: L. donovani intracellular amastigotes infecting THP-1 cells; assay: High content intracellular amastigote assay in THP-1 cells (Assay Conditions B; CDIPD screen); type: cell-based, Leishmania donovani; conditions: primary high content screen
Description: as §1

COc1ccc(N2C(=O)c3[nH]nc(CC(C)C)c3C2c2ccc(F)cc2)cc1 (racemic) [Compound 1, 4-(4-fluorophenyl)-3-isobutyl-5-(4-methoxyphenyl)-4,5-dihydropyrrolo[3,4-c]pyrazol-6(1H)-one]
cytotoxicity to the host THP-1 cells (GI) (THP-1 cells): < 13% | inhibition of parasite growth [1]: > 99%

COc1ccc(N2C(=O)c3[nH]nc(CC(C)C)c3C2c2ccccc2)cc1 (stereo not shown) [Compound 2]
cytotoxicity to the host THP-1 cells (GI) (THP-1 cells): < 13% | inhibition of parasite growth [1]: > 99%

Reference: patent US20230381142A1, “ANTILEISHMANIAL COMPOUNDS, COMPOSITIONS AND USE THEREOF” (TRUSTEES OF BOSTON UNIVERSITY, priority 2022, published 2023)
